Assay results as given in the supplement of paper PMC10849652.
The list shows a part of the results.

Chains of the proteins cited; added tags and fusions are not shown. Lines headed by an entry give the natural chain unless they say otherwise; changes in a name come on top.
UniProt Q99808: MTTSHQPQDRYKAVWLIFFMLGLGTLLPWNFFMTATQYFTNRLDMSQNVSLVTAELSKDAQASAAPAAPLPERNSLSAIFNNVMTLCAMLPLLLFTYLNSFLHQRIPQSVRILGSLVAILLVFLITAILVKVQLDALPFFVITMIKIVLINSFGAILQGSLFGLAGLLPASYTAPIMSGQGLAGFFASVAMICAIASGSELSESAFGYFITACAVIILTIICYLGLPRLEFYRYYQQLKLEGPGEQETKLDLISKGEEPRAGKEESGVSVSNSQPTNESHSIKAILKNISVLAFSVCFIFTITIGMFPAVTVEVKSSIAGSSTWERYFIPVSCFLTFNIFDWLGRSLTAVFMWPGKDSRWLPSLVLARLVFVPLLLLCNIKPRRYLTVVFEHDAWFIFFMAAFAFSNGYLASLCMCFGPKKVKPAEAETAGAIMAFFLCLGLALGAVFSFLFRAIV
UniProt O43808: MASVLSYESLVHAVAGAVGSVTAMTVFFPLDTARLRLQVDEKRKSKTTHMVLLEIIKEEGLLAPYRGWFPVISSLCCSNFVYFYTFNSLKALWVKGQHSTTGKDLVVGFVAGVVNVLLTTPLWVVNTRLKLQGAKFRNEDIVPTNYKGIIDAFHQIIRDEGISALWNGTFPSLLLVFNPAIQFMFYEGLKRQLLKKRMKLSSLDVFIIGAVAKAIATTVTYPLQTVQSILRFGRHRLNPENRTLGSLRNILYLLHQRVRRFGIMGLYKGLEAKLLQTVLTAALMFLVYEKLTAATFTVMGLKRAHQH
UniProt P51531, whole entry, looked up: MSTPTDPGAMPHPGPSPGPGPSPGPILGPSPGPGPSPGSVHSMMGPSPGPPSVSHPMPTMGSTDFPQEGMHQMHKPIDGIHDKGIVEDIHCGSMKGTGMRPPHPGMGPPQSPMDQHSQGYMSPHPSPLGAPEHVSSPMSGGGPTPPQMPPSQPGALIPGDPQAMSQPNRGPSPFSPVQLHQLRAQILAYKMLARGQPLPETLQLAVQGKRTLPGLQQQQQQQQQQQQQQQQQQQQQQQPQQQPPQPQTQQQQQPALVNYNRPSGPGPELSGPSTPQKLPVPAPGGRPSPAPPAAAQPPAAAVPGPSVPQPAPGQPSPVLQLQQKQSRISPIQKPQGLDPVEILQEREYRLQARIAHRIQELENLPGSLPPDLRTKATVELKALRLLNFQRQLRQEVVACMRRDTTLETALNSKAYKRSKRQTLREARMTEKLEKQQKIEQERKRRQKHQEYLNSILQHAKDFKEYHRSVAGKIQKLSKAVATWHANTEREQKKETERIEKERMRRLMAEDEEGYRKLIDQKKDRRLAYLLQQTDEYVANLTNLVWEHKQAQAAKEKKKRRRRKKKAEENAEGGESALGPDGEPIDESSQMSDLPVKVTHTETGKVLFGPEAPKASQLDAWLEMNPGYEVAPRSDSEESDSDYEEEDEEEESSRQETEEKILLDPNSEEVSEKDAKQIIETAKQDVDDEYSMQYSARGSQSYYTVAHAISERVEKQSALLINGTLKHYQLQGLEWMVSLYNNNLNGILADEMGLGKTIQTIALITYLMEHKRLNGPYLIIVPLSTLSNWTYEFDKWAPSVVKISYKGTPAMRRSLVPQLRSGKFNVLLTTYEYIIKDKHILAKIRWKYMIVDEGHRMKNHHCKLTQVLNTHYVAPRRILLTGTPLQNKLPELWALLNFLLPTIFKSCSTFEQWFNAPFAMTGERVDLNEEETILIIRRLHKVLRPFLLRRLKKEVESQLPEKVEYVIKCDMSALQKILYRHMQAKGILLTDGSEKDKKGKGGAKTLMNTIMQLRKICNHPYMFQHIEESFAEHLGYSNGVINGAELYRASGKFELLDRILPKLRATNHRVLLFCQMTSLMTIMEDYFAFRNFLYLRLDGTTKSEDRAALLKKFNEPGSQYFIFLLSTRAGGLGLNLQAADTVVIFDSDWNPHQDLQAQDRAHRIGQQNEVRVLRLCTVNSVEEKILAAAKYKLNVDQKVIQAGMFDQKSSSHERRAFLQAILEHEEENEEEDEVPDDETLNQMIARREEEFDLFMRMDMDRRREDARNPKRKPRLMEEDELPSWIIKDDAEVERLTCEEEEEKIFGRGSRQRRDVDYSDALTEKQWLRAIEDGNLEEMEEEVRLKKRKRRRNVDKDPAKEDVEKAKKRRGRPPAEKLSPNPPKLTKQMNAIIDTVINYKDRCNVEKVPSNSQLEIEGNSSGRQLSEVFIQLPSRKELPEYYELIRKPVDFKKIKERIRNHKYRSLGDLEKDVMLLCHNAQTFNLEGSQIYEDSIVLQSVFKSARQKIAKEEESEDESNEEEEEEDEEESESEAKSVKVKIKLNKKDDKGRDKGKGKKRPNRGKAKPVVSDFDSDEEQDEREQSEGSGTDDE
UniProt Q01650: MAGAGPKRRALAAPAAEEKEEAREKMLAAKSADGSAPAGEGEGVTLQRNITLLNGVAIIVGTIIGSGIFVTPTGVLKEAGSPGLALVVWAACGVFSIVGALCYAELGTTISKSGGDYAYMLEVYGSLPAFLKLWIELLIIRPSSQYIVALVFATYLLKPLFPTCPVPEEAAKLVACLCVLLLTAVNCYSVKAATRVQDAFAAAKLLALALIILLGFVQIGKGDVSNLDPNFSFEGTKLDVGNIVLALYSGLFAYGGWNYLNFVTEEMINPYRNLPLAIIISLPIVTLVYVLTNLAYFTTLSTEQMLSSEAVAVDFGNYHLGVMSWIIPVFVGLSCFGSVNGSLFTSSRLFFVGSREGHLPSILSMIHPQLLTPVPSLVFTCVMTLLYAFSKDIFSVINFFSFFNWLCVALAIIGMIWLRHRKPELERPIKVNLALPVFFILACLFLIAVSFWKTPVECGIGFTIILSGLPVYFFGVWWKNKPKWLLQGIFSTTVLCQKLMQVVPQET
UniProt P08195: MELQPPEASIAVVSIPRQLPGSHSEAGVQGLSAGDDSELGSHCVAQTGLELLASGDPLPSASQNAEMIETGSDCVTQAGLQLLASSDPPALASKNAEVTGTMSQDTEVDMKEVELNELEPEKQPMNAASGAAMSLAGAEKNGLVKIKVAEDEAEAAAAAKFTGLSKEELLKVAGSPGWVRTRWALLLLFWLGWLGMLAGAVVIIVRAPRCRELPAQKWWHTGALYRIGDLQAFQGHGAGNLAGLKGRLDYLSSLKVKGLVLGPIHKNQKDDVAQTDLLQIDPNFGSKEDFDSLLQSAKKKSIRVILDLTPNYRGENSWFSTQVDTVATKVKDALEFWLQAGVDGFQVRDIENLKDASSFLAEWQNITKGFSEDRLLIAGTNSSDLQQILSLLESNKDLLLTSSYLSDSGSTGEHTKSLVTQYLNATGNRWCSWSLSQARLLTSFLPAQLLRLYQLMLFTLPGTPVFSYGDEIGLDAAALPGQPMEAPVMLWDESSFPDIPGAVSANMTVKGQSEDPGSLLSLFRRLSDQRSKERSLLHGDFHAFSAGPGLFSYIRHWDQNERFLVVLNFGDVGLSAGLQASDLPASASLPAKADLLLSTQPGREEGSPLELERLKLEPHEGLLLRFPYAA
UniProt P11169: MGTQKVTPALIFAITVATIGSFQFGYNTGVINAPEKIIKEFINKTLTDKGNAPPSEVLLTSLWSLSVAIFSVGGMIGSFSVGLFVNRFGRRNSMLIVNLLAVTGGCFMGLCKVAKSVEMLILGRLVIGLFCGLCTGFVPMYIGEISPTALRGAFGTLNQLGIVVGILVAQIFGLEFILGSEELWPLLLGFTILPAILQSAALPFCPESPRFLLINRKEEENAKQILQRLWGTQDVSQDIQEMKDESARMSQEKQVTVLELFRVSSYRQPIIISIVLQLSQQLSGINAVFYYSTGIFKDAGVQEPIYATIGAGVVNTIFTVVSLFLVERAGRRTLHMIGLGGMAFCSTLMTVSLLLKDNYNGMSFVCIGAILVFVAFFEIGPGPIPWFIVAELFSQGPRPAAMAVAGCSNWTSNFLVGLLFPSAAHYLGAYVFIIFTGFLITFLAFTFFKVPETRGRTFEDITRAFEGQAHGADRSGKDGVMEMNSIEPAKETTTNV
UniProt Q00325: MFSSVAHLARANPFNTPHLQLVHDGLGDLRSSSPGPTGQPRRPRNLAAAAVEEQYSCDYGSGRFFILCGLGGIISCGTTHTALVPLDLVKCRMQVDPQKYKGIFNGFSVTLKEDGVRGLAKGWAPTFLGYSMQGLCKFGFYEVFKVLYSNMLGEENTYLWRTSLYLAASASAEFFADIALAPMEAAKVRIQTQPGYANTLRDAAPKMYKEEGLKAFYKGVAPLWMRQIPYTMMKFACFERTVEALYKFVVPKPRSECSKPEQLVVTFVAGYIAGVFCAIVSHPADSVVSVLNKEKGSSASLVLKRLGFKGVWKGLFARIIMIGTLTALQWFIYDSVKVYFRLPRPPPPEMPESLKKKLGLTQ
UniProt Q96AG3: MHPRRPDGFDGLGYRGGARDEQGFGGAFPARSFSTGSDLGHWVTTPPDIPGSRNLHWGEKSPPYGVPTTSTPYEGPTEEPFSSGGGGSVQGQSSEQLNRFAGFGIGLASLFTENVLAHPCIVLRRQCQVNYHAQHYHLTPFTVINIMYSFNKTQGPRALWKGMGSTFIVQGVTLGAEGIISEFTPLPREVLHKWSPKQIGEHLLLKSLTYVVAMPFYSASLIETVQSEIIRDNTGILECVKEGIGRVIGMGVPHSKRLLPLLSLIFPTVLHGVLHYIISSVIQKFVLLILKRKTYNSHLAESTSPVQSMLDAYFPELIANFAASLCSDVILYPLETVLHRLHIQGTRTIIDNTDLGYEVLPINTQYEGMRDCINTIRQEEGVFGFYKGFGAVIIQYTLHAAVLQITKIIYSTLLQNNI
UniProt Q8N1S5: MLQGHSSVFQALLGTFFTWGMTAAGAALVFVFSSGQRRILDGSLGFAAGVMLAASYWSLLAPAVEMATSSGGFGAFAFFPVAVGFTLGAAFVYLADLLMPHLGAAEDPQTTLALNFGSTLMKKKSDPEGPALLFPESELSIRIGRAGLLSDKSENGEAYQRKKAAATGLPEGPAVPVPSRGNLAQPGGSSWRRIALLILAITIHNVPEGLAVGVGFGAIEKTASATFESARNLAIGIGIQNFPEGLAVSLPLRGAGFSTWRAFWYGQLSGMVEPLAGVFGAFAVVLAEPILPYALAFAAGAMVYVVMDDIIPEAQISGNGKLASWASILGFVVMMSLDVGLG
UniProt P48067: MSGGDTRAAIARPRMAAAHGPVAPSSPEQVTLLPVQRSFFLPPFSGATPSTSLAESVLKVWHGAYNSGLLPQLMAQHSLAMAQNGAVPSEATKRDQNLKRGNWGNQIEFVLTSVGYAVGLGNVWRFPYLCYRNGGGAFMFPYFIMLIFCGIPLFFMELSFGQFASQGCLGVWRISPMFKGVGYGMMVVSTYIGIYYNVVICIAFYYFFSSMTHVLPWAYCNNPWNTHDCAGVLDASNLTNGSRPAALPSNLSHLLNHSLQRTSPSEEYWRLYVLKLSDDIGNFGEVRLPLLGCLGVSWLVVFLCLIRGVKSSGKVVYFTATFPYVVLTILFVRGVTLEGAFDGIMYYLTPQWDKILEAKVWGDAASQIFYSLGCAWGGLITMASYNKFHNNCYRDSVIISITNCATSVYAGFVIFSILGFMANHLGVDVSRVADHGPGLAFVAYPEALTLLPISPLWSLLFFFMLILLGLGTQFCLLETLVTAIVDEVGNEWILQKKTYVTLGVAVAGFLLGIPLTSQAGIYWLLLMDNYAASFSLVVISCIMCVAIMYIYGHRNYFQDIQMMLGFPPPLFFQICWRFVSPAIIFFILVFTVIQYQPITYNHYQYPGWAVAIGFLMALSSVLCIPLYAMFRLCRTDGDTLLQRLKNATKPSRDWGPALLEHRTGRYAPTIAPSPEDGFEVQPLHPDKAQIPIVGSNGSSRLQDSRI
UniProt O43772: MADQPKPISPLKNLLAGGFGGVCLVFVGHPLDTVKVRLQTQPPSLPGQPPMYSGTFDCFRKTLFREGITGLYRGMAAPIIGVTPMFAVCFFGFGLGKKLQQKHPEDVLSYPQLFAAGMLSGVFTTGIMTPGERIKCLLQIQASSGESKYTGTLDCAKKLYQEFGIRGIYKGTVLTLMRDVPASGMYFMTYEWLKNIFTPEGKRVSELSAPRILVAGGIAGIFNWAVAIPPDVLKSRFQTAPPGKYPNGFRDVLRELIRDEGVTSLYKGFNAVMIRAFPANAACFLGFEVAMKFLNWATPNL
UniProt Q02978: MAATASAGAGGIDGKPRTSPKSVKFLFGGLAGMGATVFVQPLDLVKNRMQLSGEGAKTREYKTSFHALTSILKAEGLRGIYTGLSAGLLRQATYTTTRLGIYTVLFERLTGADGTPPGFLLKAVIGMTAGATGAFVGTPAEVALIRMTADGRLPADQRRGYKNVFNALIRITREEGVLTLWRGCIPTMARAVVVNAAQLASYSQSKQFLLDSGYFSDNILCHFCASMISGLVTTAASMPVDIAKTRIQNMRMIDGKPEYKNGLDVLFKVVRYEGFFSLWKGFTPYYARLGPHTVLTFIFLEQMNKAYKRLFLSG

Legend:
Experiment in all cases: log2 fold change, soluble protein after heating vs DMSO (PISA); higher = thermal stabilisation; K562 lysate, 10 uM; active = over 0.2 and 3.5 SD of the protein, either way, in both replicates (recomputed)
alvocidib = compound: CN1CC[C@H](c2c(O)cc(O)c3c(=O)cc(-c4ccccc4Cl)oc23)[C@H](O)C1 [alvocidib]
Procedure, shortened: (§1)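 K562 pellets were dounce-homogenised in PBS pH 7.4 with 1 mM MgCl2, and the crude extract at 1 mg/mL protein was treated with 10 μM compound for 30 min. Aliquots were heated for 3 min across 48°C-58°C, pooled, and brought to 0.5% NP-40 at 4°C; soluble protein was the supernatant after 21,000xg for 90 min. Soluble protein was quantified by TMTpro 16plex LC-MS/MS with channel sums equalised, and reported as log2 fold change in thermal stability against DMSO controls, with values from duplicates.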

Tubastatin A = compound: CN1CCc2c(c3ccccc3n2Cc2ccc(C(=O)NO)cc2)C1 [Tubastatin A]
Procedure, shortened: as §1

[1] = compound: CNC(=O)C1=CC=CC=C1NC2=NC(=NC=C2Cl)NC3=C(C=C(C=C3)N4CCOCC4)OC
Procedure, shortened: as §1

defactinib = compound: CNC(=O)c1ccc(Nc2ncc(C(F)(F)F)c(NCc3nccnc3N(C)S(C)(=O)=O)n2)cc1 [defactinib]
Procedure, shortened: as §1

[2] = compound: CNc1nc(-c2ccc3c(N)n[nH]c3c2)cc(N2C[C@@H](C(=O)NC3CCCCC3)CC[C@H]2C)n1
Procedure, shortened: as §1

encorafenib = compound: COC(=O)N[C@@H](C)CNc1nccc(-c2cn(C(C)C)nc2-c2cc(Cl)cc(NS(C)(=O)=O)c2F)n1 [encorafenib]
Procedure, shortened: as §1

[3] = compound: COC(=O)[C@H](CCSC)NC(=O)C1=C(C=C(C=C1)NC[C@H](CS)N)C2=CC=CC=C2
Procedure, shortened: as §1

alisertib = compound: COc1cc(Nc2ncc3c(n2)-c2ccc(Cl)cc2C(c2c(F)cccc2OC)=NC3)ccc1C(=O)O [alisertib]
Procedure, shortened: as §1

[4] = compound: COc1cc2nc(-c3cc(F)ccc3O)nc(N[C@@H]3CNC[C@H]3C(C)(C)O)c2cc1OC
Procedure, shortened: as §1

gefitinib = compound: COc1cc2ncnc(Nc3ccc(F)c(Cl)c3)c2cc1OCCCN1CCOCC1 [gefitinib]
Procedure, shortened: as §1

lapatinib = compound: CS(=O)(=O)CCNCc1ccc(-c2ccc3ncnc(Nc4ccc(OCc5cccc(F)c5)c(Cl)c4)c3c2)o1 [lapatinib]
Procedure, shortened: as §1

pictilisib = compound: CS(=O)(=O)N1CCN(Cc2cc3nc(-c4cccc5[nH]ncc45)nc(N4CCOCC4)c3s2)CC1 [pictilisib]
Procedure, shortened: as §1

crizotinib = compound: C[C@@H](Oc1cc(-c2cnn(C3CCNCC3)c2)cnc1N)c1c(Cl)ccc(F)c1Cl [crizotinib]
Procedure, shortened: as §1

[5] = compound: C[C@H](C1=CC=C(C=C1)C(=O)NC2=C3C=CNC3=NC=C2)N
Procedure, shortened: as §1

duvelisib = compound: C[C@H](Nc1ncnc2nc[nH]c12)c1cc2cccc(Cl)c2c(=O)n1-c1ccccc1 [duvelisib]
Procedure, shortened: as §1

gandotinib = compound: Cc1cc(Nc2cc(CN3CCOCC3)c3nc(C)c(Cc4ccc(Cl)cc4F)n3n2)n[nH]1 [gandotinib]
Procedure, shortened: as §1

tozasertib = compound: Cc1cc(Nc2cc(N3CCN(C)CC3)nc(Sc3ccc(NC(=O)C4CC4)cc3)n2)n[nH]1 [tozasertib]
Procedure, shortened: as §1

doramapimod = compound: Cc1ccc(-n2nc(C(C)(C)C)cc2NC(=O)Nc2ccc(OCCN3CCOCC3)c3ccccc23)cc1 [doramapimod]
Procedure, shortened: as §1

bafetinib = compound: Cc1ccc(NC(=O)c2ccc(CN3CC[C@H](N(C)C)C3)c(C(F)(F)F)c2)cc1Nc1nccc(-c2cncnc2)n1 [bafetinib]
Procedure, shortened: as §1

[6] = compound: Cc1cccc(CC(=O)N2CCc3c2ccc(-c2cn(C)c4ncnc(N)c24)c3F)n1
Procedure, shortened: as §1

| Target | log2 fold change (alvocidib) | log2 fold change (Tubastatin A) | log2 fold change [1] | log2 fold change (defactinib) | log2 fold change [2] | log2 fold change (encorafenib) | log2 fold change [3] | log2 fold change (alisertib) | log2 fold change [4] | log2 fold change (gefitinib) | log2 fold change (lapatinib) | log2 fold change (pictilisib) | log2 fold change (crizotinib) | log2 fold change [5] | log2 fold change (duvelisib) | log2 fold change (gandotinib) | log2 fold change (tozasertib) | log2 fold change (doramapimod) | log2 fold change (bafetinib) | log2 fold change [6] |
| --- | --- | --- | --- | --- | --- | --- | --- | --- | --- | --- | --- | --- | --- | --- | --- | --- | --- | --- | --- | --- |
| SLC29A1 isoform 2 (UniProt Q99808) | inactive: -0.087 | inactive: -0.007 | inactive: 0.023 | inactive: 0.003 | inactive: -0.159 | inactive: 0.029 | inactive: -0.092 | inactive: -0.037 | inactive: 0.013 | inactive: 0.014 | inactive: 0.02 | inactive: 0.038 | inactive: -0.042 | inactive: -0.216 | inactive: 0.037 | inactive: 0.082 | inactive: -0.068 | inactive: 0.027 | inactive: 0.032 | inactive: 0.023 |
| SLC25A17 (UniProt O43808) | inactive: -0.216 | inactive: 0.094 | inactive: 0.007 | inactive: -0.036 | inactive: 0.006 | inactive: 0.004 | inactive: -0.009 | inactive: 0.019 | inactive: -0.011 | inactive: 0.026 | inactive: -0.033 | inactive: 0.015 | inactive: -0.052 | active: -0.303 | inactive: 0.029 | inactive: 0.072 | inactive: -0.069 | inactive: 0.007 | inactive: -0.066 | inactive: 0.085 |
| SMARCA2 (UniProt P51531) | inactive: 0.042 | inactive: -0.025 | inactive: 0.053 | inactive: 0.047 | inactive: 0.054 | inactive: 0.006 | inactive: 0.046 | inactive: -0.008 | inactive: 0.002 | inactive: -0.098 | inactive: -0.01 | inactive: -0.031 | inactive: -0.022 | inactive: 0.101 | inactive: -0.024 | inactive: -0.039 | inactive: -0.003 | inactive: -0.033 | inactive: -0.044 | inactive: -0.032 |
| SLC7A5 (UniProt Q01650) | inactive: -0.142 | inactive: 0.012 | inactive: -0.047 | inactive: -0.044 | inactive: 0.046 | inactive: -0.001 | inactive: -0.084 | inactive: -0.002 | inactive: 0.021 | inactive: 0.006 | inactive: -0.004 | inactive: 0.026 | inactive: -0.069 | active: -0.308 | inactive: 0.051 | active: 0.201 | inactive: -0.012 | inactive: 0.019 | inactive: 0.046 | inactive: 0.129 |
| SLC3A2 isoform 3 (UniProt P08195) | inactive: 0.001 | inactive: 0.067 | inactive: 0.008 | inactive: -0.008 | inactive: 0.039 | inactive: -0.011 | inactive: -0.03 | inactive: -0.028 | inactive: 0.019 | inactive: -0.028 | inactive: -0.017 | inactive: -0.005 | inactive: 0.006 | inactive: -0.039 | inactive: -0.001 | inactive: 0.057 | inactive: -0.028 | inactive: -0.011 | inactive: 0.011 | inactive: 0.011 |
| SLC9A3R1 (UniProt O14745) | inactive: -0.003 | inactive: 0.046 | inactive: -0.003 | inactive: -0.012 | inactive: 0.046 | inactive: -0.006 | inactive: -0.052 | inactive: -0.016 | inactive: 0.028 | inactive: -0.01 | inactive: -0.023 | inactive: 0 | inactive: 0.023 | inactive: -0.03 | inactive: 0.015 | inactive: 0.076 | inactive: 0 | inactive: -0.018 | inactive: -0.009 | inactive: -0.002 |
| SLC25A31 (UniProt Q9H0C2) | inactive: 0.021 | inactive: 0.006 | inactive: 0.018 | inactive: -0.047 | inactive: -0.013 | inactive: 0.017 | inactive: 0.078 | inactive: 0.04 | inactive: 0.004 | inactive: 0.032 | inactive: 0.024 | inactive: -0.012 | inactive: -0.012 | inactive: -0.034 | inactive: -0.009 | inactive: 0.022 | inactive: -0.019 | inactive: -0.006 | inactive: -0.067 | inactive: 0.036 |
| SLC6A8 isoform 2 (UniProt P48029) | inactive: -0.009 | inactive: 0.065 | inactive: -0.091 | inactive: 0.057 | inactive: 0.111 | inactive: 0.107 | inactive: -0.119 | inactive: 0.04 | inactive: 0.048 | inactive: -0.078 | inactive: -0.052 | inactive: 0.006 | inactive: -0.055 | inactive: 0.008 | inactive: -0.163 | inactive: -0.045 | inactive: -0.203 | inactive: 0.134 | inactive: -0.058 | inactive: -0.083 |
| SLC2A3 (UniProt P11169) | inactive: -0.036 | inactive: 0.015 | inactive: 0.013 | inactive: -0.014 | inactive: 0.011 | inactive: -0.001 | inactive: -0.037 | inactive: -0.027 | inactive: 0.002 | inactive: 0.049 | inactive: -0.014 | inactive: -0.044 | inactive: 0.042 | inactive: -0.022 | inactive: 0.037 | inactive: 0.009 | inactive: -0.018 | inactive: 0.059 | inactive: -0.018 | inactive: 0.034 |
| SLC25A3 isoform 2 (UniProt Q00325) | inactive: -0.056 | inactive: 0.038 | inactive: 0.01 | inactive: -0.01 | inactive: 0.037 | inactive: 0.008 | inactive: -0.012 | inactive: 0.014 | inactive: 0.013 | inactive: -0.001 | inactive: -0.022 | inactive: -0.019 | inactive: -0.018 | inactive: -0.112 | inactive: 0.02 | inactive: 0.032 | inactive: -0.019 | inactive: -0.005 | inactive: -0.013 | inactive: 0.031 |
| SLC25A46 (UniProt Q96AG3) | inactive: -0.006 | inactive: 0.006 | inactive: -0.057 | inactive: 0.004 | inactive: -0.006 | inactive: 0.016 | inactive: 0.041 | inactive: -0.004 | inactive: 0.02 | inactive: 0.012 | inactive: -0.011 | inactive: -0.01 | inactive: -0.03 | inactive: -0.015 | inactive: -0.002 | inactive: -0.065 | inactive: -0.032 | inactive: -0.037 | inactive: 0.044 | inactive: 0.062 |
| SLC6A6 (UniProt P31641) | inactive: 0.037 | inactive: 0.01 | inactive: -0.02 | inactive: 0.012 | inactive: -0.045 | inactive: -0.008 | inactive: -0.068 | inactive: -0.018 | inactive: 0.016 | inactive: 0.006 | inactive: -0.02 | inactive: -0.003 | inactive: -0.043 | inactive: 0.082 | inactive: 0.04 | inactive: -0.023 | inactive: 0.029 | inactive: -0.075 | inactive: -0.023 | inactive: -0.096 |
| SLC39A11 (UniProt Q8N1S5) | inactive: -0.02 | inactive: -0.065 | inactive: 0.107 | inactive: 0.338 | inactive: -0.111 | inactive: -0.059 | inactive: -0.23 | inactive: -0.047 | inactive: 0.097 | inactive: 0.059 | inactive: -0.054 | inactive: 0.081 | inactive: 0.081 | inactive: -0.097 | inactive: -0.002 | inactive: 0.1 | inactive: 0.178 | inactive: -0.139 | inactive: 0.022 | inactive: 0.013 |
| SLC6A9 isoform 2 (UniProt P48067) | inactive: -0.011 | inactive: 0.011 | inactive: 0.017 | inactive: -0.033 | inactive: 0.088 | inactive: -0.017 | inactive: -0.105 | inactive: -0.084 | inactive: 0.071 | inactive: 0.046 | inactive: -0.066 | inactive: -0.02 | inactive: -0.024 | inactive: -0.057 | inactive: 0.026 | inactive: 0.026 | inactive: 0.108 | inactive: -0.038 | inactive: -0.002 | inactive: 0.042 |
| SLC25A20 (UniProt O43772) | inactive: -0.011 | inactive: 0.014 | inactive: 0.031 | inactive: 0.016 | inactive: -0.012 | inactive: 0.03 | inactive: 0.005 | inactive: -0.014 | inactive: -0.019 | inactive: 0.016 | inactive: -0.016 | inactive: -0.034 | inactive: 0.03 | inactive: -0.091 | inactive: -0.022 | inactive: 0.022 | inactive: -0.005 | inactive: 0.024 | inactive: 0.005 | inactive: 0.046 |
| SLC25A11 (UniProt Q02978) | inactive: -0.061 | inactive: 0.003 | inactive: -0.03 | inactive: 0.018 | inactive: 0.042 | inactive: 0.038 | inactive: 0.032 | inactive: -0.005 | inactive: 0.007 | inactive: 0 | inactive: -0.017 | inactive: 0.005 | inactive: -0.039 | inactive: -0.122 | inactive: 0.027 | inactive: 0.033 | inactive: -0.006 | inactive: -0.053 | inactive: -0.052 | inactive: 0.076 |

An excerpt of these results, tab-delimited.
Target	log2 fold change (alvocidib)	log2 fold change (Tubastatin A)	log2 fold change [1]	log2 fold change (defactinib)	log2 fold change [2]	log2 fold change (encorafenib)	log2 fold change [3]	log2 fold change (alisertib)	log2 fold change [4]	log2 fold change (gefitinib)	log2 fold change (lapatinib)	log2 fold change (pictilisib)	log2 fold change (crizotinib)	log2 fold change [5]	log2 fold change (duvelisib)	log2 fold change (gandotinib)	log2 fold change (tozasertib)	log2 fold change (doramapimod)	log2 fold change (bafetinib)	log2 fold change [6]
SLC25A3 isoform 2 (UniProt Q00325)	inactive: -0.056	inactive: 0.038	inactive: 0.01	inactive: -0.01	inactive: 0.037	inactive: 0.008	inactive: -0.012	inactive: 0.014	inactive: 0.013	inactive: -0.001	inactive: -0.022	inactive: -0.019	inactive: -0.018	inactive: -0.112	inactive: 0.02	inactive: 0.032	inactive: -0.019	inactive: -0.005	inactive: -0.013	inactive: 0.031
SLC25A46 (UniProt Q96AG3)	inactive: -0.006	inactive: 0.006	inactive: -0.057	inactive: 0.004	inactive: -0.006	inactive: 0.016	inactive: 0.041	inactive: -0.004	inactive: 0.02	inactive: 0.012	inactive: -0.011	inactive: -0.01	inactive: -0.03	inactive: -0.015	inactive: -0.002	inactive: -0.065	inactive: -0.032	inactive: -0.037	inactive: 0.044	inactive: 0.062
